Record: PubChem BioAssay AID743121 (NCATS, 2013)
The whole screen tested about 26,000 reagents; this is a random part of them. 167 of them (0.63%) were called active. 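Calls are per gene from RSA p-values that are not deposited; an individual active-marked siRNA can sensitise only weakly.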 Entries without a mark were called inactive. Reagents against one gene are numbered here. Further read-outs or replicates are left out here.

- Purpose: 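Genes whose silencing strengthens cell killing by camptothecin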 (primary screen)
- System: MDA-MB-231 cells, a human breast cancer line
- Knock-down reagent: single siRNA against human genes, 20 nM siRNA (0.8 pmol per well)
- Duration: 120 h (drug added 48 h after transfection, read 72 h later)
- Treatment: camptothecin 20 nM (about EC30) for 72 h; vehicle 0.1% DMSO in parallel plates
- Measured: 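Cell viability by ATP luminescence (CellTiter-Glo) as % of non-targeting siRNA wells, and the log2 ratio of viability without drug over viability with camptothecin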
- Direction: log2 vehicle/camptothecin viability: higher = stronger sensitisation to camptothecin; viability with camptothecin: higher = more viable cells
- Call rule: 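Active genes have an RSA gene-level p-value below 0.001, computed from the ratios of their separate siRNAs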

After knock-down of FGF2 #1, the screen gave log2 vehicle/camptothecin viability -0.217; viability with camptothecin (% of control) = 125.
Silencing of FGF2 #2 came out at: log2 vehicle/camptothecin viability -0.446; viability with camptothecin (% of control) = 75.4.
FGF2 #3 showed log2 vehicle/camptothecin viability -0.165; viability with camptothecin (% of control) = 98.8.
Knock-down of FGF2 #4 gave: log2 vehicle/camptothecin viability 0.0701; viability with camptothecin (% of control) = 85.8.
Silencing of SRF #1 gave: log2 vehicle/camptothecin viability -0.264; viability with camptothecin (% of control) = 71.9.
For SRF #2, the values are log2 vehicle/camptothecin viability 0; viability with camptothecin (% of control) = 57.8.
Silencing of SRF #3 gave: log2 vehicle/camptothecin viability -0.224; viability with camptothecin (% of control) = 54.7.
NOTCH2 #1 showed log2 vehicle/camptothecin viability -0.388; viability with camptothecin (% of control) = 69.4.
For NOTCH2 #2, the values are log2 vehicle/camptothecin viability -0.449; viability with camptothecin (% of control) = 114.
NOTCH2 #3 gave log2 vehicle/camptothecin viability -0.0927; viability with camptothecin (% of control) = 109.
For NOTCH2 #4 the deposit lists log2 vehicle/camptothecin viability -0.245; viability with camptothecin (% of control) = 66.9.
Silencing of CCL22 #1 came out at: log2 vehicle/camptothecin viability -0.134; viability with camptothecin (% of control) = 42.1.
For CCL22 #2 the deposit lists log2 vehicle/camptothecin viability -0.157; viability with camptothecin (% of control) = 102.
After knock-down of CCL22 #3, the record shows log2 vehicle/camptothecin viability -0.0464; viability with camptothecin (% of control) = 111.
Against STAP1 #1, the entry reads log2 vehicle/camptothecin viability -0.1; viability with camptothecin (% of control) = 99.5.
STAP1 #2 gave log2 vehicle/camptothecin viability 0.287; viability with camptothecin (% of control) = 22.9.
Knock-down of STAP1 #3 gave: log2 vehicle/camptothecin viability 0.743; viability with camptothecin (% of control) = 26.5.
For STAP1 #4, the entry reads log2 vehicle/camptothecin viability -0.243; viability with camptothecin (% of control) = 80.3.

6 entries from above, ordered by “viability with camptothecin (% of control)”, ascending.
SRF #3 → log2 vehicle/camptothecin viability = -0.224; viability with camptothecin (% of control) = 54.7
SRF #2 → log2 vehicle/camptothecin viability = 0; viability with camptothecin (% of control) = 57.8
SRF #1 → log2 vehicle/camptothecin viability = -0.264; viability with camptothecin (% of control) = 71.9
FGF2 #2 → log2 vehicle/camptothecin viability = -0.446; viability with camptothecin (% of control) = 75.4
FGF2 #4 → log2 vehicle/camptothecin viability = 0.0701; viability with camptothecin (% of control) = 85.8
FGF2 #3 → log2 vehicle/camptothecin viability = -0.165; viability with camptothecin (% of control) = 98.8

The listing continues:
With knock-down of AKR7A3 #1, the screen gave log2 vehicle/camptothecin viability 0.217; viability with camptothecin (% of control) = 60.
Against AKR7A3 #2, the values are log2 vehicle/camptothecin viability -0.144; viability with camptothecin (% of control) = 115.
AKR7A3 #3 scored log2 vehicle/camptothecin viability -0.195; viability with camptothecin (% of control) = 91.1.
Depletion of AKR7A3 #4 came out at: log2 vehicle/camptothecin viability 0.131; viability with camptothecin (% of control) = 66.2.
Against HOXD12 #1, the values are log2 vehicle/camptothecin viability -0.212; viability with camptothecin (% of control) = 112.
HOXD12 #2 gave log2 vehicle/camptothecin viability 0.163; viability with camptothecin (% of control) = 64.6.
HOXD12 #3 gave log2 vehicle/camptothecin viability -0.4; viability with camptothecin (% of control) = 98.6.
HOXD12 #4 scored log2 vehicle/camptothecin viability -0.309; viability with camptothecin (% of control) = 67.
After knock-down of APOC3 #1 the results were log2 vehicle/camptothecin viability -0.237; viability with camptothecin (% of control) = 76.2.
For APOC3 #2, the values are log2 vehicle/camptothecin viability -0.14; viability with camptothecin (% of control) = 43.5.
APOC3 #3 gave log2 vehicle/camptothecin viability -0.395; viability with camptothecin (% of control) = 22.3.
For APOC3 #4 the deposit lists log2 vehicle/camptothecin viability -0.161; viability with camptothecin (% of control) = 85.8.
Against KAT7 #1, the values are log2 vehicle/camptothecin viability 0.0384; viability with camptothecin (% of control) = 71.2.
KAT7 #2 scored log2 vehicle/camptothecin viability -0.325; viability with camptothecin (% of control) = 92.9.
Against KAT7 #3, the values are log2 vehicle/camptothecin viability -0.691; viability with camptothecin (% of control) = 91.3.
Silencing of KAT7 #4 came out at: log2 vehicle/camptothecin viability 0.953; viability with camptothecin (% of control) = 30.1.
For TUBG2 #1, the values are log2 vehicle/camptothecin viability -0.424; viability with camptothecin (% of control) = 96.8.
After knock-down of TUBG2 #2 the results were log2 vehicle/camptothecin viability -0.461; viability with camptothecin (% of control) = 49.5.
After knock-down of TUBG2 #3 the results were log2 vehicle/camptothecin viability -0.243; viability with camptothecin (% of control) = 69.2.
Silencing of TUBG2 #4 resulted in: log2 vehicle/camptothecin viability 0.0603; viability with camptothecin (% of control) = 71.8.
HK3 #1 showed log2 vehicle/camptothecin viability -0.192; viability with camptothecin (% of control) = 68.2.
With knock-down of HK3 #2 the results were log2 vehicle/camptothecin viability -0.26; viability with camptothecin (% of control) = 86.9.
After knock-down of HK3 #3 the results were log2 vehicle/camptothecin viability 0.151; viability with camptothecin (% of control) = 103.
With knock-down of HK3 #4 the results were log2 vehicle/camptothecin viability 0.908; viability with camptothecin (% of control) = 22.6.
After knock-down of OAS1 #1 the results were log2 vehicle/camptothecin viability -0.0501; viability with camptothecin (% of control) = 91.3.
OAS1 #2 showed log2 vehicle/camptothecin viability -0.152; viability with camptothecin (% of control) = 70.8.
Depletion of OAS1 #3 resulted in: log2 vehicle/camptothecin viability 0.163; viability with camptothecin (% of control) = 41.4.
Against OAS1 #4, the entry reads log2 vehicle/camptothecin viability 0.621; viability with camptothecin (% of control) = 43.9.
